± gives the standard deviation of the averaged measurements. Small differences around the control level are noise.
Tests used:
Assay in all cases: level (log10 ratio to DMSO vehicle control); higher = higher biomarker level / cell amount than vehicle control
[1] = compound: CC(C)(C)C(=O)CC(=O)C(F)(F)C(F)(F)C(F)(F)F [(Heptafluorobutanoyl)pivaloylmethane]; details: 2200 nM; in DMSO
Experimental: (§1)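 BioMAP Diversity Plus panel of 12 human primary cell co-culture systems (3C, 4H, LPS, SAg, BT, BF4T, BE3C, CASM3C, HDF3CGF, KF3CT, MyoF, Mphg). Compounds were added 1 h before stimulation and left for 24 h (MyoF 48 h; BT 72 h for soluble read-outs or 6 d for IgG). Biomarkers were read by ELISA, cytotoxicity by SRB, PBMC viability and proliferation by Alamar Blue. Each well value was divided by the mean of 8 DMSO control wells on the same plate and log10 transformed; duplicate blinded samples were tested at 4 concentrations.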

1-(Perfluorohexyl)octane = compound: CCCCCCCCC(F)(F)C(F)(F)C(F)(F)C(F)(F)C(F)(F)C(F)(F)F [1-(Perfluorohexyl)octane]; details: in DMSO
Experimental: as §1

[2] = compound: CCN(CCO)S(=O)(=O)C(F)(F)C(F)(F)C(F)(F)C(F)(F)C(F)(F)C(F)(F)C(F)(F)C(F)(F)F [N-Ethyl-N-(2-hydroxyethyl)perfluorooctanesulfonamide]; details: in DMSO
Experimental: as §1

[3] = compound: CN(C(=O)C(F)(F)C(F)(F)C(F)(F)F)[Si](C)(C)C [N-Methyl-N-trimethylsilylheptafluorobutyramide]; details: 2200 nM; in DMSO
Experimental: as §1

[4] = compound: Cc1ccc(S(=O)(=O)OCC(F)(F)C(F)(F)C(F)(F)C(F)(F)C(F)(F)C(F)F)cc1 [1H,1H,7H-Perfluoroheptyl 4-methylbenzenesulfonate]; details: 2200 nM; in DMSO
Experimental: as §1

[5] = compound: FC(F)(F)C(F)(F)C(F)(F)C(F)(F)C(F)(F)C(F)(F)CC1CO1 [3-(Perfluorohexyl)-1,2-epoxypropane]; details: 2200 nM; in DMSO
Experimental: as §1

Heptafluorobutyramide = compound: NC(=O)C(F)(F)C(F)(F)C(F)(F)F [Heptafluorobutyramide]; details: 2200 nM; in DMSO
Experimental: as §1

[6] = compound: NCC(F)(F)C(F)(F)C(F)(F)C(F)(F)C(F)(F)C(F)(F)C(F)(F)F [1H,1H-Perfluorooctylamine]; details: 2200 nM; in DMSO
Experimental: as §1

Octafluoroadipic acid = compound: O=C(O)C(F)(F)C(F)(F)C(F)(F)C(F)(F)C(=O)O [Octafluoroadipic acid]; details: 2200 nM; in DMSO
Experimental: as §1

[7] = compound: O=C(O)C(F)(F)C(F)(F)C(F)(F)C(F)(F)C(F)(F)C(F)(F)C(F)(F)C(F)(F)C(F)(F)C(F)F [11-H-Perfluoroundecanoic acid]; details: 2200 nM; in DMSO
Experimental: as §1

Perfluoroheptanoic acid = compound: O=C(O)C(F)(F)C(F)(F)C(F)(F)C(F)(F)C(F)(F)C(F)(F)F [Perfluoroheptanoic acid]; details: in DMSO
Experimental: as §1

Perfluoropentanoic acid = compound: O=C(O)C(F)(F)C(F)(F)C(F)(F)C(F)(F)F [Perfluoropentanoic acid]; details: in DMSO
Experimental: as §1

[8] = compound: O=C(O)C(F)(F)C(F)(F)C(F)(F)OC(F)(F)F [Perfluoro(4-methoxybutanoic) acid]; details: 2200 nM; in DMSO
Experimental: as §1

[9] = compound: O=S(=O)(O)CCC(F)(F)C(F)(F)C(F)(F)C(F)(F)C(F)(F)C(F)(F)C(F)(F)C(F)(F)F [8:2 Fluorotelomer sulfonic acid]; details: in DMSO
Experimental: as §1

1H,1H-Heptafluorobutanol = compound: OCC(F)(F)C(F)(F)C(F)(F)F [1H,1H-Heptafluorobutanol]; details: 2200 nM; in DMSO
Experimental: as §1

[10] = compound: OCCC(F)(F)C(F)(F)C(F)(F)C(F)(F)C(F)(F)C(F)(F)F [6:2 Fluorotelomer alcohol]; details: 2200 nM; in DMSO
Experimental: as §1

Test System | level (log10) [1] | level (log10) (1-(Perfluorohexyl)octane; 740 nM) | level (log10) (1-(Perfluorohexyl)octane; 2200 nM) | level (log10) ([2]; 2200 nM) | level (log10) ([2]; 6700 nM) | level (log10) ([2]; 20000 nM) | level (log10) [3] | level (log10) [4] | level (log10) [5] | level (log10) (Heptafluorobutyramide) | level (log10) [6] | level (log10) (Octafluoroadipic acid) | level (log10) [7] | level (log10) (Perfluoroheptanoic acid; 2200 nM) | level (log10) (Perfluoroheptanoic acid; 6700 nM) | level (log10) (Perfluoroheptanoic acid; 20000 nM) | level (log10) (Perfluoroheptanoic acid; 60000 nM) | level (log10) (Perfluoropentanoic acid; 2200 nM) | level (log10) (Perfluoropentanoic acid; 6700 nM) | level (log10) (Perfluoropentanoic acid; 20000 nM) | level (log10) (Perfluoropentanoic acid; 60000 nM) | level (log10) [8] | level (log10) ([9]; 2200 nM) | level (log10) ([9]; 6700 nM) | level (log10) ([9]; 20000 nM) | level (log10) ([9]; 60000 nM) | level (log10) (1H,1H-Heptafluorobutanol) | level (log10) [10]
MyoF:alpha-SM Actin | 0.0255 ± 0.047 | -0.0035 ± 0.021 | 0.0065 ± 0.015 | 0.0135 ± 0.043 | 0.0845 ± 0.023 | -0.235 ± 0.057 | 0.0085 ± 0.028 | -0.006 ± 0.0028 | 0.0375 ± 0.018 | 0.008 ± 0.025 | 0.0005 ± 0.023 | 0.0185 ± 0.012 | 0.002 ± 0.045 | -0.0275 ± 0.023 | -0.028 ± 0.035 | -0.0365 ± 0.022 | -0.022 ± 0.024 | 0.0215 ± 0.047 | 0.0265 ± 0.07 | 0.0355 ± 0.052 | 0.0485 ± 0.044 | -0.0005 ± 0.0021 | -0.0125 ± 0.11 | 0.034 ± 0.02 | 0.001 ± 0.014 | -0.0125 ± 0.025 | 0.0335 ± 0.005 | 0.0025 ± 0.022
MyoF:bFGF | -0.002 ± 0.016 | 0.002 ± 0.0057 | 0.0055 ± 0.012 | 0.0105 ± 0.025 | -0.01 ± 0.016 | -0.025 ± 0.0042 | 0.011 ± 0.024 | 0.0015 ± 0.0092 | 0.027 ± 0.034 | -0.004 ± 0.023 | 0.0045 ± 0.032 | 0.011 ± 0.016 | 0.0005 ± 0.0092 | 0.0085 ± 0.04 | -0.029 ± 0.0085 | -0.0255 ± 0.013 | -0.0075 ± 0.0021 | -0.0145 ± 0.018 | -0.021 ± 0.0014 | -0.0085 ± 0.0078 | -0.0055 ± 0.0035 | 0.0035 ± 0.00071 | 0.017 ± 0.028 | 0.0045 ± 0.012 | 0.006 ± 0.023 | 0.0265 ± 0.0021 | -0.001 ± 0.016 | -0.001 ± 0.017

— the supplement of paper PMC10331698
